This passage reports binding results from paper PMC3116909.

Protein sequences, listed by entry. Tags and fused reporters are not part of them.
UniProt Q96EB6: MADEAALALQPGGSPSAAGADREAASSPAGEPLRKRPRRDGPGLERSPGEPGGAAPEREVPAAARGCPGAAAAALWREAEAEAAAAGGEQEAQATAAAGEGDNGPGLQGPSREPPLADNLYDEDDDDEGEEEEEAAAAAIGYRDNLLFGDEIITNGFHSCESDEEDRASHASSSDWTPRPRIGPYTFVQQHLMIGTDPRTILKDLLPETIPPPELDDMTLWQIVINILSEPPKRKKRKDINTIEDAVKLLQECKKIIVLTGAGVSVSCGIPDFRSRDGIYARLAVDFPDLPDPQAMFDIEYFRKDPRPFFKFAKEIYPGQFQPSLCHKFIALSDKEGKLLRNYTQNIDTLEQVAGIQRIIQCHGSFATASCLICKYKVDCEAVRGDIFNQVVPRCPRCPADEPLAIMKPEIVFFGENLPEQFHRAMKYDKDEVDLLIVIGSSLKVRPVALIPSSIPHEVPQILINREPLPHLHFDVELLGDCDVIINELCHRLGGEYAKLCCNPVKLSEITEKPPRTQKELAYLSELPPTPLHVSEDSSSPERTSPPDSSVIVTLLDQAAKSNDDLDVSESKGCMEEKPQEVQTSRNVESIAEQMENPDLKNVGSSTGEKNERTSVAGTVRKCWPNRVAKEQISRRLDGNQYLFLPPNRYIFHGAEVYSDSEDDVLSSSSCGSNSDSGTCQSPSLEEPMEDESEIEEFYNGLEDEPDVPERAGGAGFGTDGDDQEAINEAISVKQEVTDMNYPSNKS

These are yes or no findings as the source states them, for the method shown. Binding seen in cells or lysates may run through a third protein.

For the test, the target named is SIRT1 (UniProt Q96EB6). Description: co-IP; HEK 293 cells transiently transfected for 36 hours; 0.5 mg of nuclear protein incubated overnight with 2 µg of antibody against one partner or control IgG; eluted proteins immunoblotted.

B1: Miz1 (protein, UniProt Q13105 1-803)
chain: MDFPQHSQHVLEQLNQQRQLGLLCDCTFVVDGVHFKAHKAVLAACSEYFKMLFVDQKDVVHLDISNAAGLGQVLEFMYTAKLSLSPENVDDVLAVATFLQMQDIITACHALKSLAEPATSPGGNAEALATEGGDKRAKEEKVATSTLSRLEQAGRSTPIGPSRDLKEERGGQAQSAASGAEQTEKADAPREPPPVELKPDPTSGMAAAEAEAALSESSEQEMEVEPARKGEEEQKEQEEQEEEGAGPAEVKEEGSQLENGEAPEENENEESAGTDSGQELGSEARGLRSGTYGDRTESKAYGSVIHKCEDCGKEFTHTGNFKRHIRIHTGEKPFSCRECSKAFSDPAACKAHEKTHSPLKPYGCEECGKSYRLISLLNLHKKRHSGEARYRCEDCGKLFTTSGNLKRHQLVHSGEKPYQCDYCGRSFSDPTSKMRHLETHDTDKEHKCPHCDKKFNQVGNLKAHLKIHIADGPLKCRECGKQFTTSGNLKRHLRIHSGEKPYVCIHCQRQFADPGALQRHVRIHTGEKPCQCVMCGKAFTQASSLIAHVRQHTGEKPYVCERCGKRFVQSSQLANHIRHHDNIRPHKCSVCSKAFVNVGDLSKHIIIHTGEKPYLCDKCGRGFNRVDNLRSHVKTVHQGKAGIKILEPEEGSEVSVVTVDDMVTLATEALAATAVTQLTVVPVGAAVTADETEVLKAEISKAVKQVQEEDPNTHILYACDSCGDKFLDANSLAQHVRIHTAQALVMFQTDADFYQQYGPGGTWPAGQVLQAGELVFRPRDGAEGQPALAETSPTAPECPPPAE
For the molecule B1, the binding entry was “no binding”.
